These are yes or no findings as the source states them, for the method shown. A result given as binding can be weak or reduced; the word gives no strength. For some of these results: Binding seen in cells or lysates may run through a third protein.

Amino acid sequences for entries named in this document (tags omitted). A change or cut given only in a name is not applied to a line headed by its entry.
UniProt Q9Y6I9: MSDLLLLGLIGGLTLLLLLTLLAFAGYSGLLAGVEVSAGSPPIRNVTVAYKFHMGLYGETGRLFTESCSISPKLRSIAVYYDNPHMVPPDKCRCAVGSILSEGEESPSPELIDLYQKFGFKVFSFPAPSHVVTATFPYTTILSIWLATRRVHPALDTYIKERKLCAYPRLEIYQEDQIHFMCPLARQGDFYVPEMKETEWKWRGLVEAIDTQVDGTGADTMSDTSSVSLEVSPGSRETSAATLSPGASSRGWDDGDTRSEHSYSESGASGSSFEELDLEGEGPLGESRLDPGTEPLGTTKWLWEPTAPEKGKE
UniProt P11387: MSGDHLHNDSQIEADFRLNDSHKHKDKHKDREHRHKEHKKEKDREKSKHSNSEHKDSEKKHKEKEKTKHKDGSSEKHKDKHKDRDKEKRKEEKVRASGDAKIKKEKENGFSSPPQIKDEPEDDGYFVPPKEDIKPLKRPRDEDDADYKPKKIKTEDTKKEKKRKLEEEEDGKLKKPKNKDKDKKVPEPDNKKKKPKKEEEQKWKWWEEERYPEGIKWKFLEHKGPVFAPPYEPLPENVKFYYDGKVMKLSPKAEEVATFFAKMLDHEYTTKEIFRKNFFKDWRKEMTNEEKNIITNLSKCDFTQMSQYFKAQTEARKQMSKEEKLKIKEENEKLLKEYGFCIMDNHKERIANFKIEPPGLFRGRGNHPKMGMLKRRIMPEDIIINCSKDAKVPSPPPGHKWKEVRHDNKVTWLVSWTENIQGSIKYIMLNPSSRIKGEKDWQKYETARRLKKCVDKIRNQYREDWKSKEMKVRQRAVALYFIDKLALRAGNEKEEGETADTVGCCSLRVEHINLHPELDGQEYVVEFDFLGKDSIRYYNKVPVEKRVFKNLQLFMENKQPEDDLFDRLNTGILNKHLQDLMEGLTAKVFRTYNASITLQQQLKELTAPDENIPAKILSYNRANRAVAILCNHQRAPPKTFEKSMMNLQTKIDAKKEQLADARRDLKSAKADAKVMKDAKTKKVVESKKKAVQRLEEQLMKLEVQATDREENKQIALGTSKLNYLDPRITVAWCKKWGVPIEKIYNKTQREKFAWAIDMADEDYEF

3 substances from article PMC7062751 can be followed below.

In test [1] the target is His-tagged TEX264^WT without its hydrophobic N-terminus (ΔNT TEX264) (human) (UniProt Q9Y6I9). As to the kind of experiment: pull-down; TEX264^WT coupled to HisPur Ni-NTA Magnetic Beads, incubated 2 h with recombinant TOP1; 137 mM NaCl, 20 mM Tris–HCl pH 7.0; both purified.
Test [2] deals with TEX264^SIM2*-FLAG (SIM2-mutated variant) (UniProt Q9Y6I9). The test can be described thus: co-IP; anti-FLAG M2 agarose on lysates of HEK293 or ΔTEX264 HEK293 cells expressing FLAG-tagged TEX264 variants; Benzonase, ethidium bromide; cells treated with DMSO or CPT (25 nM, 1 h).
Test [3] has as its target TEX264^SIM1*-FLAG (SIM1-mutated variant) (UniProt Q9Y6I9). Described as above.
In test [4] the target is recombinant p97-S tag (human) (UniProt P55072). The test can be described thus: pull-down; p97-S tag coupled to S-protein Agarose, incubated 2 h with TEX264^WT, TEX264^ΔSHP and/or recombinant TOP1; 137 mM NaCl, 20 mM Tris–HCl pH 7.0, 0.5% Triton X-100; 4 °C coupling; both purified.

Take “recombinant TOP1 (from UniProt P11387 1-765)”: the binding result in test [1] is given as “binds”. “Modified species of TOP1 (from UniProt P11387 1-765)”: the binding result in test [2] and in test [3] was “binds” throughout. Consider “His-tagged TEX264^WT without its hydrophobic N-terminus (ΔNT TEX264) (from UniProt Q9Y6I9) (domain or fragment)”, for which, in test [4], the binding result is “binds”.
